# Publication PMC4909395
# Protein sequences, listed by entry. Tags and fused reporters are not part of them.
# UniProt O14744: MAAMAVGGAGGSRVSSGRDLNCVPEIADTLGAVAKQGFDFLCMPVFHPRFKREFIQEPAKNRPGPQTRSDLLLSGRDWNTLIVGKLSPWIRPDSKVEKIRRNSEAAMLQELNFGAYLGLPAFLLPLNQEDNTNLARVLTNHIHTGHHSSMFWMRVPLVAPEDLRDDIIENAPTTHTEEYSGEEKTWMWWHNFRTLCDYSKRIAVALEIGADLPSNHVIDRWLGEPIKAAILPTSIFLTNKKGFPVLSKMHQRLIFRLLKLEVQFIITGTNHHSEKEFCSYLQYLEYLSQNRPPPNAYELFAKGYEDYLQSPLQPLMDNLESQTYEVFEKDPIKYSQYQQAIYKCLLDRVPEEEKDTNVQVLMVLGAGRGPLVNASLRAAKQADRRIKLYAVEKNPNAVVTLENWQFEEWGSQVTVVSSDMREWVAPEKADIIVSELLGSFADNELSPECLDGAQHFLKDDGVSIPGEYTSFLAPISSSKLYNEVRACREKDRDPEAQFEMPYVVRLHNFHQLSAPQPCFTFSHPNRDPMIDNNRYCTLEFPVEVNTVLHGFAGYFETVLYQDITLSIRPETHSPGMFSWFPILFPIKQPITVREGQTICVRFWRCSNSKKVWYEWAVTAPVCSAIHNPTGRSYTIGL
# Results are given in words; binding and its absence hold for the method and conditions named. Binding seen in cells or lysates may run through a third protein. Some entries that bind do so weakly or less than the wild type. For part of these data: Tags and fused reporters may be left off the sequences shown.
# T1: ERG (endogenous, from TMPRSS2:ERG-positive VCaP cells) (human (endogenous in VCaP)) (UniProt P11308)
# T1 sequence: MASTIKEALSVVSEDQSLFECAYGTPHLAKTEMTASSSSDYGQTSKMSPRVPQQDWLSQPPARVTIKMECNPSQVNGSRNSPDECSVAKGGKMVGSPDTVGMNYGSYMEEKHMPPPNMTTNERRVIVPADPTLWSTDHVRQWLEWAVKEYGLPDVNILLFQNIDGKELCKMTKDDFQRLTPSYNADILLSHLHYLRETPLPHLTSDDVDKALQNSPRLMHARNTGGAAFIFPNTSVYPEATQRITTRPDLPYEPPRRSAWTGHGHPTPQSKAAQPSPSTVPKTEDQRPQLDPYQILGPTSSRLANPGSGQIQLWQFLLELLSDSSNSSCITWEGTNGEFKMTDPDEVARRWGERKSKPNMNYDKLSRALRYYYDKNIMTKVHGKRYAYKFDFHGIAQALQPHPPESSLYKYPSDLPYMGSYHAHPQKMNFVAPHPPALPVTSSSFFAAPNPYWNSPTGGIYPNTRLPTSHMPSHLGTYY
# T2: HA-ERG (UniProt P11308)
# T2 sequence: T1 sequence
# T3: ERG (exogenous, Dox-inducible, in 22Rv1 cells) (UniProt P11308)
# T3 sequence: T1 sequence
# B1: ERG FL: full-length ERG (protein, UniProt P11308 1-479)
# chain: T1 sequence
# B2: GFP-ERG (protein, UniProt P11308 1-479)
# chain: T1 sequence
# Columns and labels:
# [1] = target: T1, ERG (endogenous, from TMPRSS2:ERG-positive VCaP cells) (human (endogenous in VCaP)); experiment: co-IP; VCaP cells, untreated or R1881-treated; ERG or control IgG antibody coupled to magnetic beads, incubated with lysate overnight at 4 °C, washed with RIPA buffer; western blot
# [2] = target: T2, HA-ERG; experiment: co-IP; PC3 cells (AR-negative) overexpressing HA-ERG and V5-PRMT5; immunoprecipitation of HA-ERG, western blot
# [3] = target: T3, ERG (exogenous, Dox-inducible, in 22Rv1 cells); experiment: co-IP; 22Rv1 cells expressing exogenous ERG or DNA-binding defective ERG ('Dx'), with or without PRMT5 knockdown; ERG immunoprecipitation, western blot for ERG and PRMT5
# [4] = target: FLAG-PRMT5 (UniProt O14744); experiment: co-IP; 293 cells (AR-negative) overexpressing FLAG-PRMT5 and ERG constructs; immunoprecipitation of FLAG-PRMT5, western blot
Molecule,binding [1],binding [4],also measured
"Androgen Receptor (endogenous, VCaP cells) (from UniProt P10275-1 1-920)",binds,–,–
V5-PRMT5 (from UniProt O14744 1-637) (enzyme),–,–,binding [2]: binds
PRMT5 (endogenous) (from UniProt O14744 1-637) (enzyme),binds,–,binding [3]: binds
B1,–,binds,–
B2,–,binds,–
